Source: PubChem BioAssay AID504648 (National Center for Advancing Translational Sciences (NCATS), 2011)
Screen size: about 390,000 compounds; about 610 (0.16%) were called active. The inconclusive results got no clear call from the source; some entries with a clear call stand among them for comparison. Calls come from the whole dose curve; as a rule, active = well fitted inhibition curve with a large enough effect; inconclusive = small, poorly fitted or top-dose-only effect, or effect the other way, or another doubt; inactive = no such curve, though single readings can be large or run the other way. A potency beside an inconclusive call is a rough fit, not a confirmed value.

Assay: Nrf2 qHTS screen for inhibitors: counterscreen for cytotoxicity
Conditions: A549 ARE-Fluc cells, CellTiter-Fluor viability, 18-24 h; series mostly up to 46 µM
How it was run: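 A549 ARE-Fluc cells in 5% FBS OPTI-MEM, 5000 cells/well, rested 2 h then exposed to compounds in concentration-response for 18-24 h at 37 °C. Viability by CellTiter-Fluor fluorescence (Ex 405/Em 525) after 30 min; luciferase luminescence (BugLite, 15 min, RT) read afterwards.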
Potency is the fitted concentration of half-maximal effect.

Row | SMILES | Potency
1 | COc1ccccc1NC(=O)Nc1ccnn1C1CCN(C(=O)c2cscn2)CC1 | inconclusive: 29.1 µM [activator, single point]
2 | CCOC(=O)c1ccc(NC(=S)N2CCC(O)CC2)cc1 | inactive
3 | COc1ccc(C(=O)NC(=S)NNC(=O)c2ccc(NC(=O)C(C)C)cc2)cc1 | inactive
4 | Cc1cccc(-n2nc(C(=O)c3ccco3)cc(-c3nc4ccccc4[nH]3)c2=N)c1 | inconclusive: 14.6 µM [falling, partial curve]
5 | COC(CNC(=O)c1ccc2c(c1)ncn2C1CCCCCC1)OC | inactive
6 | COc1ccccc1NC(=O)c1oc2ccccc2c1NC(=O)c1cccc(OC)c1OC | inactive
7 | Cn1nc(C(=O)N2CCCC2)c2ccccc2c1=O | inactive
8 | O=C(Cc1ccc(Cl)cc1)N1CCC2(CC1)NCCc1[nH]cnc12 | inconclusive: 32.6 µM [falling, partial curve, poor fit]
9 | CCC(=O)OCC(=O)C1(OC(=O)CC)[C@H](C)C[C@H]2[C@H]3[C@H]([C@@H](O)C[C@@]21C)[C@@]1(C)C=CC(=O)C=C1C[C@H]3Cl (stereo partly drawn) | inactive
10 | Cc1nc2nc(SCC(=O)NC3CCCCC3)nn2c(C)c1Cc1ccccc1Cl | inactive
11 | COc1ccc(C=NNc2ccc([N+](=O)[O-])cc2S(=O)(=O)Nc2ccccc2C(=O)O)cc1OC | inconclusive: 23.1 µM [falling, partial curve, poor fit]
12 | COc1ccccc1/C=C/C(=O)OCC(=O)Nc1ccc(Cl)cn1 | inconclusive: 32.6 µM [falling, partial curve, poor fit]
13 | Cc1cccn2c(=O)c3cc(C(=O)NCC4CCCO4)c(=N)n(C4CCCC4)c3nc12 (stereo not drawn) | inconclusive: 14.6 µM [activator, partial curve]
14 | Cc1oc(-c2cccc(Cl)c2)nc1CN1CCCC(C(=O)NC(C)c2ccc3c(c2)OCCO3)C1 (stereo not drawn) | inconclusive: 23.1 µM [falling, partial curve, poor fit]
15 | CCc1nnc(NC(=O)CSc2nc(-c3ccccc3)cc(-c3ccc(F)cc3)c2C#N)s1 | inconclusive: 5.8 µM [falling, full curve, poor fit]
16 | Cn1c(=O)[nH]c(=O)c2c1nc(CN1CCOCC1)n2CCc1ccccc1 | inconclusive: 7.31 µM [activator, partial curve, poor fit]
17 | O=C(NCCCc1nc2ccccc2n1Cc1ccc(Cl)cc1)C1CCCCC1 | inconclusive: 29.1 µM [falling, partial curve, poor fit]
18 | N#C/C(=N/Nc1ccc(OC(F)(F)F)cc1)C(N)=S | inconclusive: 23.1 µM [falling, single point]
19 | Cc1cccc(Nc2n[nH]c(C)c2[N+](=O)[O-])c1 | inconclusive: 23.1 µM [falling, partial curve, poor fit]
20 | Cc1ccc(S(=O)(=O)N2CCN(CC(=O)N3CCCC3)CC2)c(C)c1 | inactive
21 | CS(=O)(=O)c1ccc(C(=O)OCC(=O)Nc2cccnc2Cl)cc1[N+](=O)[O-] | inactive
22 | Cc1cc(C)cc(OCc2ccc(C(=O)N3N=C(C(F)F)CC3(O)C(F)F)o2)c1 (stereo not drawn) | inconclusive: 29.1 µM [falling, single point]
23 | Cc1ccc(NCC(=O)Nc2cccc(S(=O)(=O)N(C)C)c2)cc1S(=O)(=O)N1CCCCCC1 | inconclusive: 23.1 µM [falling, single point]

Row | SMILES | Potency
24 | COc1cc(OC)c(C2Nc3cccc4cccc(c34)N2)c(OC)c1 | inconclusive: 16.4 µM [falling, single point]
25 | COc1ccccc1C(C)NCC(=O)NC(=O)NCc1ccco1 (stereo not drawn) | inactive
26 | CCCCN(CC(O)COc1cccc(C)c1)CC(O)COc1cccc(C)c1 (stereo not drawn) | inconclusive: 29.1 µM [falling, single point]
27 | CC(C)(C)n1ncc2c(=O)n(CC(=O)NCc3ccc(F)cc3)cnc21 | inconclusive: 29.1 µM [falling, partial curve, poor fit]
28 | C[n+]1c2n(c3ccccc31)N=C(c1cc(C(C)(C)C)c(O)c(C(C)(C)C)c1)CS2 | inconclusive: 23.1 µM [falling, single point]
29 | COc1ccc(S(=O)(=O)N2CCCN(CC(=O)Nc3ccc(OC)cc3OC)CC2)cc1 | inactive
30 | Cc1cc(C(=O)Nc2ccc(Br)cc2)cs1 | inactive
31 | O=S(=O)(NCC(c1ccco1)N1CCN(c2ccccc2F)CC1)c1ccccc1 (stereo not drawn) | inactive
32 | CCCNC(=O)NS(=O)(=O)c1cnccc1Sc1ccc(Cl)c(Cl)c1 | inactive
33 | COc1ccc(C(=O)N[C@H](C(=O)Nc2nc3ccccc3[nH]2)C(C)C)cc1 | inconclusive: 7.31 µM [falling, partial curve, poor fit]
34 | Cc1ccc(Cn2c(C(=O)O)c(CNCc3ccc(OC(C)C)cc3)c3ccc(C)cc32)cc1 | inconclusive: 29.1 µM [falling, single point]
35 | COc1cccc(CNC(=O)c2cc(C)nc3c2c(C)nn3-c2ccc(C)cc2)c1 | inactive
36 | COc1cccc(-n2c(=O)c3c(C)c(C)sc3n(CC(=O)NCCc3ccc(OC)c(OC)c3)c2=O)c1 | inconclusive: 0.517 µM [falling, partial curve, poor fit]
37 | CC(/C=N/NC(=O)c1cc(-c2ccncc2)nc2ccccc12)=C\c1ccco1 | active: 18.4 µM
38 | COc1ccc(NS(=O)(=O)c2cc(NC(=O)c3ccc(Cl)cc3)ccc2N2CCOCC2)cc1 | inconclusive: 2.06 µM [falling, partial curve, poor fit]
39 | [O-][n+]1onc2c1CCC1N(O)C(c3ccccc3)CC21O (stereo not drawn) | inactive
40 | COc1ccccc1NC(=O)c1ccc(CSc2ccccc2)o1 | inactive
41 | CCOCCCN(Cc1ccco1)S(=O)(=O)c1cc2c(cc1Cl)NC(=O)CO2 | inactive
42 | CC(Oc1ccc(F)cc1)C(=O)Nc1sc2c(c1C(=O)NCc1cccnc1)CCCC2 (stereo not drawn) | inconclusive: 23.1 µM [falling, partial curve, poor fit]
43 | CCc1cccc2sc(N3CCN(C(=O)c4ccc([N+](=O)[O-])o4)CC3)nc12 | inconclusive: 23.1 µM [falling, single point]
44 | Cc1[nH]c2ccccc2c1C(=O)/C=C\c1ccccc1Cl | inconclusive: 23.1 µM [falling, partial curve, poor fit]
45 | O=C(NC1CC(=O)N(c2cccc(F)c2)C1)c1cccs1 (stereo not drawn) | inactive
46 | CC1CC(C)CN(C(=O)c2cc3ccccc3o2)C1 (stereo not drawn) | inactive

Row | SMILES | Potency
47 | C=CCC[C@H](Cc1ccc(F)cc1)C(=O)OC[C@H](Cc1c[nH]c2ccccc12)NC(=O)[C@@H](CC=C)CC(=O)N[C@H](CO)Cc1ccccc1 | inconclusive: 29.1 µM [falling, single point]
48 | COc1ccc(Cl)cc1C(=O)Nc1ccccc1N1CCN(C(=O)C(C)C)CC1 | inconclusive: 23.1 µM [falling, single point]
49 | CCc1ccc(NC(=O)c2ccc(CN3CC(=O)N4CCCCC4C3=O)cc2)cc1 (stereo not drawn) | inactive
50 | CCCCc1ccc(-c2csc(/C(C#N)=C/c3ccco3)n2)cc1 | inconclusive: 20.6 µM [falling, partial curve, poor fit]
51 | Cc1ccccc1Nc1cc(C(=O)NCCCN2CCN(c3cccc(Cl)c3)CC2)c2ccccc2n1 | inconclusive: 29.1 µM [falling, partial curve, poor fit]
52 | CC(C)C(=O)Nc1ccc2nc(SCC(=O)N3CCCC3)sc2c1 | inactive
53 | Cc1ccc(SCCNC(=O)c2ccc(C)c(S(=O)(=O)Nc3cccc(C)c3)c2)cc1 | inconclusive: 29.1 µM [falling, single point]
54 | Cn1cnc2c(oc3ccccc32)c1=O | inactive
55 | COC(=O)C1(Cc2ccc3c(c2)CCC3)Cc2ccc3c(c2C1=O)CCC3 (stereo not drawn) | inactive
56 | CCOc1ccc(CN2CCc3nc(N4CCN(c5ccccc5OC)CC4)ncc3C2)cc1OC | inconclusive: 32.6 µM [falling, partial curve, poor fit]
57 | O=C(C=C=Nc1ccccc1)C(=O)N=C=Cc1ccccc1 | inconclusive: 16.4 µM [falling, partial curve, poor fit]
58 | N#CC(C#N)=CN=c1ccn(Cc2ccc(Cl)cc2Cl)cc1 | inconclusive: 20.6 µM [falling, partial curve]
59 | COc1ccc(-c2nc(SCC(=O)NC3CCCC3)c(-c3ccc(F)cc3)[nH]2)cc1 | inactive
60 | CS(=O)(=O)Nc1ccc(C2=NN(C(=O)c3cccc(F)c3)C(c3cccs3)C2)cc1 (stereo not drawn) | inconclusive: 14.6 µM [falling, partial curve, poor fit]
61 | O=C(/C(=C/c1ccc(Cl)cc1)c1nc2ccccc2[nH]1)c1ccccc1 | inconclusive: 18.4 µM [falling, single point]
62 | C=CCn1c(C)cc(C(=O)Cn2ncc(Cl)c(Cl)c2=O)c1C | inconclusive: 29.1 µM [falling, single point]
63 | CS(=O)(=O)c1ccc(S(=O)CC(=O)OCc2ccccc2)c([N+](=O)[O-])c1 (stereo not drawn) | inconclusive: 18.4 µM [falling, single point]
64 | Cc1c(NC(=O)/C(C#N)=C/c2ccc(-c3ccc(Cl)c(Cl)c3)o2)c(=O)n(-c2ccccc2)n1C | inconclusive: 20.6 µM [falling, single point]
65 | C/C(=N\NC(=O)c1ccc(Br)cc1)C1C(=O)c2ccccc2C1=O | inconclusive: 29.1 µM [falling, single point]
66 | O=C(NC1CC(=O)N(c2ccc(F)cc2)C1)c1ccc(S(=O)(=O)N2CCCCC2)cc1 (stereo not drawn) | inactive
67 | O=C(N/N=C/c1c(Cl)cccc1Cl)c1ccc(F)cc1 | inactive
68 | CCOC(=O)Cn1c(=O)n(CC2CCCO2)c2nc(-c3ccccc3OC)nc(C(N)=O)c21 (stereo not drawn) | inactive

Among those listed so far, 2 contain a COOH group:
Row | SMILES | Potency
11 | COc1ccc(C=NNc2ccc([N+](=O)[O-])cc2S(=O)(=O)Nc2ccccc2C(=O)O)cc1OC | inconclusive: 23.1 µM [falling, partial curve, poor fit]
34 | Cc1ccc(Cn2c(C(=O)O)c(CNCc3ccc(OC(C)C)cc3)c3ccc(C)cc32)cc1 | inconclusive: 29.1 µM [falling, single point]

Three structures from above, sorted by SMILES length, smallest number first.
Row | SMILES | Potency
59 | COc1ccc(-c2nc(SCC(=O)NC3CCCC3)c(-c3ccc(F)cc3)[nH]2)cc1 | inactive
66 | O=C(NC1CC(=O)N(c2ccc(F)cc2)C1)c1ccc(S(=O)(=O)N2CCCCC2)cc1 (stereo not drawn) | inactive
64 | Cc1c(NC(=O)/C(C#N)=C/c2ccc(-c3ccc(Cl)c(Cl)c3)o2)c(=O)n(-c2ccccc2)n1C | inconclusive: 20.6 µM [falling, single point]
